Consider one substance from US20240252628A1.

Chains of the proteins cited; added tags and fusions are not shown. Lines headed by an entry give the natural chain unless they say otherwise; changes in a name come on top. Residues count along the entry.
UniProt P22004, residues 382-513: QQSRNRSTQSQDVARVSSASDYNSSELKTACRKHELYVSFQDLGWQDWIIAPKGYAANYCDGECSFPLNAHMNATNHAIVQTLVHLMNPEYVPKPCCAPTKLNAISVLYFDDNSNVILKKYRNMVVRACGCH
UniProt P27037: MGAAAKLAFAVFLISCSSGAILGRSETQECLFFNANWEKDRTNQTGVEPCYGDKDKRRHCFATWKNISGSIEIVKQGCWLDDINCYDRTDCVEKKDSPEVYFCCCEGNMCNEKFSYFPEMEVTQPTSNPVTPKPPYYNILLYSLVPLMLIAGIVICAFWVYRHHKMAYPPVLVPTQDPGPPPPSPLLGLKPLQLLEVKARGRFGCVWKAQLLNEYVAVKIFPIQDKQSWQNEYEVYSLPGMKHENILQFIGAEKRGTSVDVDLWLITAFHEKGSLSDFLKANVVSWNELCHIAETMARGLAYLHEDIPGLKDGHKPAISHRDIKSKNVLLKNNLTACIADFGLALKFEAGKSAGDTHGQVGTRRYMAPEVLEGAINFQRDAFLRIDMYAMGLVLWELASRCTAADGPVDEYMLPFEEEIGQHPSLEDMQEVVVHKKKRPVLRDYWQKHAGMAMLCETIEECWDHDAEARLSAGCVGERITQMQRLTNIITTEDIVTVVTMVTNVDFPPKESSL

No constants are given. Whether binding was seen depends on the method and setting. Some entries that bind do so weakly or less than the wild type.

In this assay the target is BMP6 (UniProt P22004). Briefly: similar binding assay (SPR).

Turning to “ActRIIA-mFc (from UniProt P27037 21-135) (Fc fusion)”, the binding entry is “binds”.
